PubChem BioAssay AID1159578 | Peter MacCallum Cancer Centre – 2015
Assay: 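Knock-downs that alter how fast lymphatic endothelial cells migrate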 (primary screen). Cell system: human lymphatic endothelial cells. Knock-down reagent: siRNA pool against human genes, 40 nM. Timing: 48 h after transfection. Measured: 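Cells stained with dye and imaged after a scratch; covered wound area and nuclei counted, duplicates averaged, migration set against mock wells and turned into a robust z-score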. Scale: migration robust z-score: higher = faster migration into the scratch; nuclei per well: higher = more cells in the well. Active means: 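Migration changed when robust z exceeds 2 or falls below -2 and mean nuclei number is at least 3300; otherwise not called changed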. Calls: active = migration changed; inactive = no migration change, or too few cells.
The whole screen tested about 18,000 reagents; shown is a random part of them. Of all reagents, about 1,030 (5.7%) got an active call. 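Inactive calls also include pools with fewer than 3300 nuclei, whose migration was not assessed.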 Raw values are not corrected between plates. Further read-outs or replicates are left out here.

Gene | migration robust z-score | nuclei per well, duplicate mean | activity call
GEMIN8 (gem nuclear organelle associated protein 8) | -0.14 | 5922 | inactive
COL1A2 (collagen type I alpha 2 chain) | 0.86 | 5053 | inactive
ISOC1 (isochorismatase domain containing 1) | -1.43 | 4340 | inactive
FBXL20 (F-box and leucine rich repeat protein 20) | -1.25 | 4702 | inactive
ADGRA1 (adhesion G protein-coupled receptor A1) | -0.1 | 6333 | inactive
GARIN1B (golgi associated RAB2 interactor 1B) | 1.03 | 5705 | inactive
MSX1 (msh homeobox 1) | -0.6 | 6033 | inactive
ARPC1A (actin related protein 2/3 complex subunit 1A) | 0.81 | 4486 | inactive
IFI27L1 (interferon alpha inducible protein 27 like 1) | -0.99 | 4556 | inactive
KHSRP (KH-type splicing regulatory protein) | -0.05 | 5655 | inactive
SNX22 (sorting nexin 22) | 0.07 | 5320 | inactive
SNX7 (sorting nexin 7) | 2.56 | 5452 | active
LCN2 (lipocalin 2) | -2.23 | 5022 | active
CD247 (CD247 molecule) | 0 | 5061 | inactive
PMCH (pro-melanin concentrating hormone) | 0.72 | 5697 | inactive
TM2D1 (TM2 domain containing 1) | 1.29 | 6554 | inactive
CD47 (CD47 molecule) | -0.61 | 5668 | inactive
TMEM187 (transmembrane protein 187) | -0.38 | 5612 | inactive
CT47A4 (cancer/testis antigen family 47 member A4) | -3.12 | 4940 | active
SLC25A40 | -0.66 | 4861 | inactive
STXBP4 (syntaxin binding protein 4) | 0.1 | 7333 | inactive
H2AC11 (H2A clustered histone 11) | -1.44 | 5620 | inactive
CT47A10 (cancer/testis antigen family 47 member A10) | -1.27 | 5658 | inactive
GOLGA2 (golgin A2) | 1.73 | 5563 | inactive
FTL (ferritin light chain) | 0.78 | 6122 | inactive
NOVA2 (NOVA alternative splicing regulator 2) | -1.36 | 5831 | inactive
PFN4 (profilin family member 4) | -0.18 | 5342 | inactive
KRTAP10-10 (keratin associated protein 10-10) | -1.14 | 5786 | inactive
ZNF107 (zinc finger protein 107) | 0.72 | 6582 | inactive
EGLN2 (egl-9 family hypoxia inducible factor 2) | 0.54 | 4420 | inactive
CCDC77 (coiled-coil domain containing 77) | -0.45 | 6144 | inactive
PDK3 (pyruvate dehydrogenase kinase 3) | -1.74 | 3528 | inactive
WNK4 (WNK lysine deficient protein kinase 4) | -0.6 | 6003 | inactive
RLBP1 (retinaldehyde binding protein 1) | -0.88 | 6885 | inactive
CFB (complement factor B) | -0.8 | 5039 | inactive
FLT1 (fms related receptor tyrosine kinase 1) | -0.36 | 5382 | inactive
ICE2 (interactor of little elongation complex ELL subunit 2) | 0.61 | 7242 | inactive
ZNF385A (zinc finger protein 385A) | -0.11 | 6564 | inactive
UBE4B (ubiquitination factor E4B) | 1.3 | 5735 | inactive
INTS13 (integrator complex subunit 13) | 0.66 | 4940 | inactive
GIPC2 (GIPC PDZ domain containing family member 2) | 0.73 | 5528 | inactive
SAMTOR (S-adenosylmethionine sensor upstream of mTORC1) | -1.76 | 3978 | inactive
DIPK1C (divergent protein kinase domain 1C) | 2.4 | 6700 | active
CDH22 (cadherin 22) | -0.62 | 5048 | inactive
ANKRD7 (ankyrin repeat domain 7) | -0.65 | 5600 | inactive
GRIN3A (glutamate ionotropic receptor NMDA type subunit 3A) | -1.35 | 5548 | inactive
C19orf18 (chromosome 19 open reading frame 18) | 0.11 | 5866 | inactive
ATF6 (activating transcription factor 6) | -1.43 | 4330 | inactive
RPS27A (ribosomal protein S27a) | -0.79 | 4372 | inactive
CEP170B (centrosomal protein 170B) | 0.22 | 5344 | inactive
DEDD (death effector domain containing) | 0.06 | 5934 | inactive
N4BP2L2 (NEDD4 binding protein 2 like 2) | -0.22 | 5758 | inactive
LRRC7 (leucine rich repeat containing 7) | 0.88 | 5658 | inactive
FAM120A (family with sequence similarity 120 member A) | -0.3 | 5344 | inactive
FGF6 (fibroblast growth factor 6) | -0.5 | 4348 | inactive
PRXL2A (peroxiredoxin like 2A) | 0.71 | 5700 | inactive
AHNAK (AHNAK nucleoprotein) | -1.87 | 5569 | inactive
